According to PubChem BioAssay AID1487 (National Center for Advancing Translational Sciences (NCATS), 2009):
The other results are listed elsewhere or left out. Shown are side measurements of this screen, not its main read-out; they come without a call. The list favours compounds with an active or inconclusive main result. The note in brackets gives the kind of curve behind each potency; many fits are weak.

Test: qHTS Assay for Modulators of Lamin A Splicing
Conditions: HeLa LMNA splicing GFP/RFP minigene ratio, 48 h
Procedure, shortened: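 S3 HeLa cells stably expressing lamin A-EGFP splicing minigene plus DsRed2, 600 cells/well, 48 h compound exposure at 37C. Laser-scanning cytometry; analysed as GFP (500-530 nm)/RFP (575-640 nm) total intensity ratio; 0.5% DMSO vehicle.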

[1] = measured here: GFP splicing reporter channel
[2] = measured here: RFP viability control channel

Which AC50 [1] does the source give for `CN(C)C(=O)c1ccc(-c2nccc(NCc3ccccc3)n2)cc1` here?
The AC50 was 0.178 µM [falling, full curve, poor fit].

Which AC50 [1] does the source give for `Cc1occc1-c1nnc(SCCNCCO)o1` here?
The AC50 was 2 µM [falling, full curve].

What about the AC50 [2] of the same molecule?
The AC50 was 6.31 µM [falling, partial curve].

Which results are given for `CCN1CCN(CCCNC(=O)C2CCCN(c3nnc(-n4cccc4)s3)C2)CC1` (stereo not drawn)?
AC50 [1]: 25.1 µM [rising, partial curve, poor fit]; AC50 [2]: 15.8 µM [rising, partial curve, poor fit]

Which AC50 [1] does the source give for `Cc1ccc(-c2nc(P(=O)(c3ccccc3)c3ccccc3)c(N3CCOCC3)o2)cc1` here?
Its AC50 is 11.2 µM [rising, single point].

Which AC50 [1] does the source give for `O=C(Nc1cccc(C(=O)O)c1)/C(=C\c1ccccc1)NC(=O)c1cccc2ccccc12` here?
The AC50 was 14.1 µM [falling, single point].

What about the AC50 [2] of the same molecule?
Its AC50 is 14.1 µM [falling, single point].

Which AC50 [2] does the source give for `Nc1cc(=O)[nH]c(SCc2cccc(Cl)c2)n1` here?
The AC50 was 35.5 µM [rising, single point].

Which results are given for `O=C(CN(C1CCCCC1)S(=O)(=O)c1ccc(Br)cc1)NCc1ccncc1`?
AC50 [1]: 3.55 µM [rising, single point]; AC50 [2]: 0.355 µM [rising, full curve, poor fit]

With `CN1/C(=C\C=C(/C#N)C(=O)Nc2ccccc2F)C(C)(C)c2ccccc21` as the molecule, how does the AC50 [1] read?
The AC50 was 5.01 µM [falling, full curve].

And the AC50 [2]?
The AC50 was 3.98 µM [falling, full curve].

For `O=C(COc1ccc2c(c1)C(=O)CC1(CCCCC1)O2)NCc1ccccc1`, which AC50 [1] is on record?
The AC50 was 12.6 µM [rising, single point].

What about the AC50 [2] of the same molecule?
The AC50 was 17.8 µM [rising, single point].

Which AC50 [2] does the source give for `Clc1ccc(SCCCCN2CCNCC2)cc1` here?
The AC50 was 7.08 µM [rising, partial curve].

Which AC50 [2] does the source give for `N/N=C(\c1ccccc1)C12CN3CN(CN(C3)C1)C2` here?
Its AC50 is 1.26 µM [falling, partial curve].

With `COC1CCN(C(=O)CC2C(=O)NCCN2CC(C)(C)C)CC1` (stereo not drawn) as the molecule, how does the AC50 [2] read?
The AC50 was 1.58 µM [falling, partial curve].

For `Cc1cccc2nc(CSc3nc4ccccc4[nH]3)cn12`, which AC50 [1] is on record?
Its AC50 is 0.0891 µM [falling, full curve].

For `COc1cccc2c1C(=O)c1c(O)c3c(c(O)c1C2=O)C[C@](O)(C(C)=O)C[C@H]3O[C@@H]1C[C@H](N)[C@H](O)[C@H](C)O1`, which AC50 [1] is on record?
Its AC50 is 2.82 µM [falling, partial curve, poor fit].

What does the source list for `Cc1cccc(NC(=O)Nc2cccc(Oc3c(F)c(F)c(F)c(F)c3F)c2)c1`?
AC50 [1]: 22.4 µM [rising, single point]; AC50 [2]: 17.8 µM [rising, single point]

With `O=S(=O)(NCC1CCCO1)c1ccc(Oc2ccccc2)cc1` (stereo not drawn) as the molecule, how does the AC50 [2] read?
Its AC50 is 15.8 µM [rising, partial curve].

Which AC50 [1] does the source give for `Cc1cccc(C(=O)Nc2ccc(C(=O)OCc3cc(=O)n4c(C)csc4n3)cc2)c1` here?
The AC50 was 35.5 µM [falling, single point].

What about the AC50 [2] of the same molecule?
Its AC50 is 35.5 µM [falling, single point].

Which results are given for `CC(=O)c1ccc2c(c1)N(C)c1ccccc1S2`?
AC50 [1]: 35.5 µM [falling, single point]; AC50 [2]: 35.5 µM [falling, single point]

For `CCCCn1c(=O)c(F)cn(Cc2ccc(OC)c([N+](=O)[O-])c2)c1=O`, which AC50 [2] is on record?
Its AC50 is 1.58 µM [falling, partial curve, poor fit].

Which AC50 [1] does the source give for `CS(=O)(=O)c1ccc2nnn(OCC(=O)Nc3ccc(Br)cc3Br)c2c1` here?
Its AC50 is 17.8 µM [falling, partial curve, poor fit].

What about the AC50 [2] of the same molecule?
The AC50 was 0.562 µM [falling, full curve, poor fit].

For `Cn1c(=O)c2c(SCCN3CCOCC3)nc(C3CCCC3)nc2n(C)c1=O`, which AC50 [1] is on record?
Its AC50 is 1.58 µM [rising, partial curve].

With `Cc1ccc(NC(=O)CN2CCC(C(=O)c3ccc4c(c3)OCCO4)CC2)cc1` as the molecule, how does the AC50 [2] read?
The AC50 was 15.8 µM [rising, single point].

For `CC(C)c1cnc2c(c1SCC(=O)c1ccccc1)c(=O)n(C)c(=O)n2C`, which AC50 [1] is on record?
The AC50 was 0.562 µM [rising, full curve].

What about the AC50 [2] of the same molecule?
Its AC50 is 5.62 µM [rising, single point].

Which AC50 [1] does the source give for `COc1ccc2[nH]cc(CCNc3ncncc3-c3ccoc3)c2c1` here?
Its AC50 is 2 µM [falling, full curve].

For `Cc1ccc(NS(=O)(=O)c2ccc(Cl)c(NC(=S)NC(=O)C3CCCCC3)c2)cc1Cl`, which AC50 [2] is on record?
The AC50 was 35.5 µM [falling, single point].

With `Nc1ccc(C(=O)Nc2ccc(OC(F)(F)C(F)F)c(NC(=O)c3ccc(N)cc3)c2)cc1` as the molecule, how does the AC50 [2] read?
The AC50 was 8.91 µM [rising, partial curve].

For `CCOC(=O)C1=C(C)NC(=S)NC1c1ccc(-c2cccc(Cl)c2C)o1` (stereo not drawn), which AC50 [2] is on record?
The AC50 was 0.0112 µM [falling, partial curve].

For `CN(C1CCS(=O)(=O)C1)S(=O)(=O)c1ccc(C2CCCCC2)cc1` (stereo not drawn), which AC50 [2] is on record?
Its AC50 is 14.1 µM [rising, single point].

For `O=C(CSc1ccccc1)NCc1ccc2c(c1)CCN2C(=O)c1ccccc1`, which AC50 [1] is on record?
Its AC50 is 1.12 µM [rising, partial curve, poor fit].

What about the AC50 [2] of the same molecule?
Its AC50 is 0.891 µM [rising, full curve, poor fit].

With `COc1ccc(OC)c(CNC(=O)c2ccc(NC(=O)c3nsc4ccccc34)cc2)c1` as the molecule, how does the AC50 [1] read?
Its AC50 is 0.501 µM [rising, partial curve, poor fit].

Which AC50 [1] does the source give for `CCOC(=O)CN1C(=O)C(CC)Oc2ccc(Cl)cc21` (stereo not drawn) here?
The AC50 was 12.6 µM [rising, single point].

For `Cc1ccc(N=C2NC(=O)CC(C(=O)Nc3ccc4c(c3)OCO4)S2)cc1` (stereo not drawn), which AC50 [1] is on record?
The AC50 was 0.708 µM [rising, partial curve, poor fit].

What about the AC50 [2] of the same molecule?
The AC50 was 1 µM [rising, full curve, poor fit].

Which AC50 [1] does the source give for `N=c1c2c(-c3ccccc3)c(-c3ccccc3)n(Cc3ccccc3)c2ncn1CCCn1ccnc1` here?
The AC50 was 15.8 µM [falling, partial curve].

What about the AC50 [2] of the same molecule?
The AC50 was 11.2 µM [falling, partial curve].

For `COc1ccc(/C=C/C(=O)c2ccc3c4c(cccc24)CC3)cc1OC`, which AC50 [2] is on record?
Its AC50 is 5.62 µM [rising, single point].
